Results are given in words; binding and its absence hold for the method and conditions named. In cells and extracts the contact can be indirect. Some results given as binding are weak or reduced against the parent protein; the word gives no strength.
Molecular target: T1, exportin 7 (endogenous, human U251 cells) (human) (UniProt Q9UIA9)
T1 sequence (looked up): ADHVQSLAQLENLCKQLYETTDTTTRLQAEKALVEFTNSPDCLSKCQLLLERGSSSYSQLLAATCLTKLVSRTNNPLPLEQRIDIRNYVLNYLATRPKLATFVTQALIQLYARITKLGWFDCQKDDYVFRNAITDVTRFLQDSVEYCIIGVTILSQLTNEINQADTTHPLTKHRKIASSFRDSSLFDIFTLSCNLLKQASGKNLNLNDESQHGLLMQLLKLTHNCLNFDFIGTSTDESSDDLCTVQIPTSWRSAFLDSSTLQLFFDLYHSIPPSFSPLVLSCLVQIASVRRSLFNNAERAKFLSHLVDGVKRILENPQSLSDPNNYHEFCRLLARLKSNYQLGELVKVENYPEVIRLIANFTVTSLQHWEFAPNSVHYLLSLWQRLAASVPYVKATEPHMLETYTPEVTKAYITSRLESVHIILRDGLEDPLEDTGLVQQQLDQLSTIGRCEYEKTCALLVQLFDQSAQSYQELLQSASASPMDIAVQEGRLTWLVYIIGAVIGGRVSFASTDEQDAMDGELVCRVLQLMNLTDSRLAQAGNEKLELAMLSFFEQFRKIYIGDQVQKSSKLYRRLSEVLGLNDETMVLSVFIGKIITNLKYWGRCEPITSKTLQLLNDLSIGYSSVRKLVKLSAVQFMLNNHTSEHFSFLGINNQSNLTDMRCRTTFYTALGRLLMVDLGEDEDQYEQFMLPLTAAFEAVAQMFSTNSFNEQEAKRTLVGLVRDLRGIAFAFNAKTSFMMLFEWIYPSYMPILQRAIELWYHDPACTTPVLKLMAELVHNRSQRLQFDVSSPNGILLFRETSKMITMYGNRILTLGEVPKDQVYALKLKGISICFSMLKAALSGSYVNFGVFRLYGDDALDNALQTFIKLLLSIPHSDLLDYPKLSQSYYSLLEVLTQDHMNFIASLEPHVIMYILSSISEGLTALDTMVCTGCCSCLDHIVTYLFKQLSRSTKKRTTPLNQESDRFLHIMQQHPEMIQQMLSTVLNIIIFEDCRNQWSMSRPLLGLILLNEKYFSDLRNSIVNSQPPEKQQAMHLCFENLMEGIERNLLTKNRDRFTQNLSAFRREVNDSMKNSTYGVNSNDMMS
Test: co-precipitation from whole cell lysates of U251 cells overexpressing STAT3 (wild type lane of FIG. 2D)

Protein sequences, listed by entry. Tags and fused reporters are not part of them. Lines headed by an entry give the natural chain unless they say otherwise; changes in a name come on top.
UniProt P40763: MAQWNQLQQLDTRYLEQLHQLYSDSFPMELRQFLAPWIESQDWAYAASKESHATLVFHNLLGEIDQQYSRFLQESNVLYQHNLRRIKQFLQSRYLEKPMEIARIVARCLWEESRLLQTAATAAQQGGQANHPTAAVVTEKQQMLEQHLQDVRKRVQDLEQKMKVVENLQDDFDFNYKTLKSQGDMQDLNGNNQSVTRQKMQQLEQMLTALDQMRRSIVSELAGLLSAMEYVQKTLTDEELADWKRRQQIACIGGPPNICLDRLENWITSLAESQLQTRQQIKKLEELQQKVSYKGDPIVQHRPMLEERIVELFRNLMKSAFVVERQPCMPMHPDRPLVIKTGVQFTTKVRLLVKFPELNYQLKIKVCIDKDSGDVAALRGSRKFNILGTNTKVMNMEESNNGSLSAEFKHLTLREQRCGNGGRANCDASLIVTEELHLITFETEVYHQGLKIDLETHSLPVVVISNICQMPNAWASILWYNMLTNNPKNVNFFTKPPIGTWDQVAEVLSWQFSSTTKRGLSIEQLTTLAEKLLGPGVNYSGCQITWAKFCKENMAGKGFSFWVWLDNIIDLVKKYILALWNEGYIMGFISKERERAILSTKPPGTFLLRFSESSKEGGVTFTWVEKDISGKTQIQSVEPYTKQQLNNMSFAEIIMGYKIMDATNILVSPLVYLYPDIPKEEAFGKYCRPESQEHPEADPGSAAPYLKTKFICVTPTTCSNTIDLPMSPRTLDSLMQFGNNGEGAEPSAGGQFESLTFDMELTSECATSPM

STAT3 overexpressed in U251 human tumor cells (from UniProt P40763 2-770)
binding: binds

Source: US20160317671A1
